At least one peptide structure holds a part that was inferred or is arguable (an end, a ring closure or a residue). Peptide text beside a SMILES is read from it. * marks the point of attachment. X1 = CCCCCCCCCCCCCCCC(=O)OCC(C*)OC(=O)CCCCCCCCCCCCCCC; Palmitoyl = CCCCCCCCCCCCCCCC(=O)*
Tested on: adjuvant-associated biological themes in LV, SP, LN
Conditions: ID
Text: A defined sets of genes were selected according to specified criteria (e.g., FC, PA-call, threshold values). Their functional enrichment values were then obtained from TargetMine (Chen, Y. A., Tripathi, L. P. & Mizuguchi, K. PloS one 6, e17844 (2011)) (http://targetmine.mizuguchilab.org/) using the API interface. The following resources were used throughout the analysis via TargetMine Interface (GO, GOSlim, Integrated Pathway, KEGG, Reactome, and the NCI pathway). The Holm-Bonferroni method was used for multiple testing corrections.
Whole organ transcriptome data for each organ from each mouse were analyzed as follows to obtain biological themes for individual samples from each adjuvant-administered group of three mice. […] A set of Pj genes was first defined, where eij/ei(c)>2.0. Biological themes enriched within Pj were then identified using TargetMine (Chen, Y. A. et al., PloS one 6, e17844 (2011)) (http://targetmine.mizuguchilab.org/). Tj denote the resulting list of biological themes, with associated p-values from Fischer's exact test.
Next, the biological themes called by all the individual samples in the group were scored as follows. Having obtained three lists (T1, T2 and T3) for a given experimental condition, a consensus list T of themes was created as T={(t1, p1), (t2, p2), . . . }, where ti is a biological theme that appears in all of T1, T2 and T3, and pi is the smallest of the associated p-values. Only the themes with the p-value of <0.05 were included in T.
To summarize the biological themes in T further, a list of terms considered to be associated with adjuvant activity in general was separately prepared. AT={at1, at2, . . . }, where ati is a pre-selected adjuvant-associated term (e.g., “stress” or “cytokine”). Finally, an enrichment score S for an adjuvant-associated term ati was defined as: S(ati)=Σ−log(pj), where the name of tj in T includes a term ati as a substring and pj is the associated p-value.
This scoring scheme summarizes the relative enrichment of pre-selected adjuvant-associated terms in genes responding to each adjuvant in each organ.

CCCCCCCCCCCCCCCC(=O)N[C@@H](CSCC(COC(=O)CCCCCCCCCCCCCCC)OC(=O)CCCCCCCCCCCCCCC)C(=O)N[C@@H](CO)C(=O)N[C@@H](CCCCN)C(=O)N[C@@H](CCCCN)C(=O)N[C@@H](CCCCN)C(=O)N[C@@H](CCCCN)C(=O)O (stereo partly drawn) [Pam3CSK4, Pam-3-Cys-Ser-Lys-Lys-Lys-Lys] (Palmitoyl-C(X1)SKKKK-OH)
IFN alpha, GO annotation line 1 of 5: 0
IFN alpha, GO annotation line 2 of 5: 0
IFN alpha: cellular response to interferon-alpha: 0
IFN alpha: positive regulation of interferon-alpha production: 0
IFN alpha: regulation of interferon-alpha production: 0
IFN beta: cellular response to interferon-beta: 7.13
IFN beta: interferon-beta production: 0
IFN beta: positive regulation of interferon-beta production: 0
IFN beta: regulation of interferon-beta production: 0
IFN beta: response to interferon-beta: 11.6
IFN gamma: cellular response to interferon-gamma: 0
IFN gamma: interferon-gamma production: 0
IFN gamma: regulation of interferon-gamma production: 0
IFN gamma: response to interferon-gamma: 3.17
NF-kappa B signaling pathway, GO annotation line 1 of 4: 29.6
NF-kappa B signaling pathway, GO annotation line 2 of 4: 16.9
NF-kappa B signaling pathway, GO annotation line 3 of 4: 0
NF-kappa B signaling pathway, GO annotation line 4 of 4: 5.45
TNF signaling pathway: 35.8
adaptive immune response, GO annotation line 1 of 5: 10.5
adaptive immune response, GO annotation line 2 of 5: 11.7
adaptive immune response, GO annotation line 3 of 5: 0
adaptive immune response, GO annotation line 4 of 5: 0
adaptive immune response, GO annotation line 5 of 5: 0
apoptosis, GO annotation line 1 of 8: 15
apoptosis, GO annotation line 2 of 8: 6.84
apoptosis, GO annotation line 3 of 8: 3.68
apoptosis, GO annotation line 4 of 8: 0
apoptosis, GO annotation line 5 of 8: 0
apoptosis, GO annotation line 6 of 8: 0
apoptosis, GO annotation line 7 of 8: 0
apoptosis, GO annotation line 8 of 8: 0
chemokine, GO annotation line 1 of 4: 5.38
chemokine, GO annotation line 2 of 4: 4.48
chemokine, GO annotation line 3 of 4: 5.3
chemokine, GO annotation line 4 of 4: 0
chemotaxis, GO annotation line 1 of 11: 31.4
chemotaxis, GO annotation line 2 of 11: 17.6
chemotaxis, GO annotation line 3 of 11: 24.2
chemotaxis, GO annotation line 4 of 11: 13.8
chemotaxis, GO annotation line 5 of 11: 17.5
chemotaxis, GO annotation line 6 of 11: 15.3
chemotaxis, GO annotation line 7 of 11: 14.7
chemotaxis, GO annotation line 8 of 11: 10.9
chemotaxis, GO annotation line 9 of 11: 11.3
chemotaxis, GO annotation line 10 of 11: 6.79
chemotaxis, GO annotation line 11 of 11: 0
cytokine, GO annotation line 1 of 17: 46.5
cytokine, GO annotation line 2 of 17: 25.9
cytokine, GO annotation line 3 of 17: 31.5
cytokine, GO annotation line 4 of 17: 13.6
cytokine, GO annotation line 5 of 17: 32.6
cytokine, GO annotation line 6 of 17: 29.8
cytokine, GO annotation line 7 of 17: 17
cytokine, GO annotation line 8 of 17: 19.7
cytokine, GO annotation line 9 of 17: 21.6
cytokine, GO annotation line 10 of 17: 21.5
cytokine, GO annotation line 11 of 17: 5.39
cytokine, GO annotation line 12 of 17: 17
cytokine, GO annotation line 13 of 17: 11.6
cytokine, GO annotation line 14 of 17: 11.3
cytokine, GO annotation line 15 of 17: 14.5
cytokine, GO annotation line 16 of 17: 0
cytokine, GO annotation line 17 of 17: 0
defense response, GO annotation line 1 of 11: 64.1
defense response, GO annotation line 2 of 11: 29.2
defense response, GO annotation line 3 of 11: 19.9
defense response, GO annotation line 4 of 11: 19.3
defense response, GO annotation line 5 of 11: 11.4
defense response, GO annotation line 6 of 11: 7.28
defense response, GO annotation line 7 of 11: 0
defense response, GO annotation line 8 of 11: 0
defense response, GO annotation line 9 of 11: 0
defense response, GO annotation line 10 of 11: 0
defense response, GO annotation line 11 of 11: 0
immune response, GO annotation line 1 of 8: 45.5
immune response, GO annotation line 3 of 8: 12.2
immune response, GO annotation line 4 of 8: 13.2
immune response, GO annotation line 5 of 8: 13.2
immune response, GO annotation line 6 of 8: 14.3
immune response, GO annotation line 7 of 8: 0
immune response, GO annotation line 8 of 8: 0
inflammatory response, GO annotation line 1 of 5: 38
inflammatory response, GO annotation line 2 of 5: 13.6
inflammatory response, GO annotation line 3 of 5: 5.39
inflammatory response, GO annotation line 4 of 5: 5.25
inflammatory response, GO annotation line 5 of 5: 3.41
innate immune response, GO annotation line 1 of 6: 24.9
innate immune response, GO annotation line 2 of 6: 12.9
innate immune response, GO annotation line 3 of 6: 11.3
innate immune response, GO annotation line 4 of 6: 10.3
innate immune response, GO annotation line 5 of 6: 11.2
innate immune response, GO annotation line 6 of 6: 0
interleukin-6: interleukin-6 production: 7.44
interleukin-6: positive regulation of interleukin-6 production: 6.14
interleukin-6: regulation of interleukin-6 production: 7.82
interleukin-12: interleukin-12 production: 9.58
interleukin-12: positive regulation of interleukin-12 production: 0
interleukin-12: regulation of interleukin-12 production: 10.1
migration, GO annotation line 1 of 10: 21.1
migration, GO annotation line 2 of 10: 14.7
migration, GO annotation line 3 of 10: 27.6
migration, GO annotation line 4 of 10: 15.4
migration, GO annotation line 5 of 10: 14
migration, GO annotation line 6 of 10: 11.4
migration, GO annotation line 7 of 10: 14.1
migration, GO annotation line 8 of 10: 11.1
migration, GO annotation line 9 of 10: 4.46
migration, GO annotation line 10 of 10: 0
stress, GO annotation line 1 of 3: 47.4
stress, GO annotation line 2 of 3: 17.9
stress, GO annotation line 3 of 3: 0
wounding, GO annotation line 1 of 3: 11.1
wounding, GO annotation line 2 of 3: 12.2
wounding, GO annotation line 3 of 3: 3.54
